4 substances from patent US9295629B2 (CAREGEN CO., LTD., priority 2011, dated 2016) can be followed below.

The test system of the data set is fibroblasts. The data set can be described thus: Immunostaining for presence of the peptide in fibroblasts. The format is cell-based. Particulars: fibroblasts treated with peptide, immunostaining (FIG. 7c).

Where no end group is shown, it is not given here.

“peptide-4: WNT-derived peptide, amino acid sequence LCCGRGHNVL (WNT-derived peptide 4)”: the “presence of the peptide in cells” value is listed as “presence of the peptide in cells”. As for “peptide-2: WNT-derived peptide, amino acid sequence LCCGRGHNAR (WNT-derived peptide 2)”, the “presence of the peptide in cells” value was “presence of the peptide in cells”. Under “LCCGRGHRTRTQR (cysteine pairing not given here) [peptide-1]” stands “presence of the peptide in cells”; under “peptide-3: WNT-derived peptide, amino acid sequence AERRRELCRC (WNT-derived peptide 3)”, “presence of the peptide in cells”.
